Paper doi:10.1101/2021.08.25.457671
Results are given in words; binding and its absence hold for the method and conditions named. Binding seen in cells or lysates may run through a third protein. Some binding calls cover weakened binding; strength is not graded here. Sequences can lack the tags named with a protein.

Sequences of proteins named here, by UniProt entry; tags and fusion partners are left off.
UniProt P10591: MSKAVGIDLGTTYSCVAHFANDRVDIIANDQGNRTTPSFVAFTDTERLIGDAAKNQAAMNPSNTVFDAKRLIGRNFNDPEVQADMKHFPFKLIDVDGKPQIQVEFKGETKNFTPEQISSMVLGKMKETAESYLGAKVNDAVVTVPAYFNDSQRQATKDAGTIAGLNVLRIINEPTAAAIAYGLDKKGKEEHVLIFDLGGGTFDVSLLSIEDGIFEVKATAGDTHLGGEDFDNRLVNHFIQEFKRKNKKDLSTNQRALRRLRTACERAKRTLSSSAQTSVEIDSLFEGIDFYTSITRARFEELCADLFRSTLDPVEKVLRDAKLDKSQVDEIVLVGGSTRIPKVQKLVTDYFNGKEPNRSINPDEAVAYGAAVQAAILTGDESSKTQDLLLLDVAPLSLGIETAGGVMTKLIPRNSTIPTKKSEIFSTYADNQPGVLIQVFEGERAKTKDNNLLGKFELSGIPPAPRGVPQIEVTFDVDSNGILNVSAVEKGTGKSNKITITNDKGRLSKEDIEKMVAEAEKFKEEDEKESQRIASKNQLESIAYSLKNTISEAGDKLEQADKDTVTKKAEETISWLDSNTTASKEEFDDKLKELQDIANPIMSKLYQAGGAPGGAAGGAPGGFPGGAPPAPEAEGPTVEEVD

Assays:
[1] = target: T1, HA-tagged Pcl7 (budding yeast) (UniProt P40186); assay: co-IP
T1 sequence: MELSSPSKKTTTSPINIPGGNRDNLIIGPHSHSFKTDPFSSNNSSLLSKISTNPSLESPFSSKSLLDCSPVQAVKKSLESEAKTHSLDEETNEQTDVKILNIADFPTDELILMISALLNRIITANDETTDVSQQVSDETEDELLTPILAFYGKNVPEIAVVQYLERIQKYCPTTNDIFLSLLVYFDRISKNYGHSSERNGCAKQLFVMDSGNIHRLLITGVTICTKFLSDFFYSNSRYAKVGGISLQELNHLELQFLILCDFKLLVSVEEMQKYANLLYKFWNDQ

[2] = target: T2, HA-tagged Ura8 (budding yeast) (UniProt P38627); assay: co-IP
T2 sequence: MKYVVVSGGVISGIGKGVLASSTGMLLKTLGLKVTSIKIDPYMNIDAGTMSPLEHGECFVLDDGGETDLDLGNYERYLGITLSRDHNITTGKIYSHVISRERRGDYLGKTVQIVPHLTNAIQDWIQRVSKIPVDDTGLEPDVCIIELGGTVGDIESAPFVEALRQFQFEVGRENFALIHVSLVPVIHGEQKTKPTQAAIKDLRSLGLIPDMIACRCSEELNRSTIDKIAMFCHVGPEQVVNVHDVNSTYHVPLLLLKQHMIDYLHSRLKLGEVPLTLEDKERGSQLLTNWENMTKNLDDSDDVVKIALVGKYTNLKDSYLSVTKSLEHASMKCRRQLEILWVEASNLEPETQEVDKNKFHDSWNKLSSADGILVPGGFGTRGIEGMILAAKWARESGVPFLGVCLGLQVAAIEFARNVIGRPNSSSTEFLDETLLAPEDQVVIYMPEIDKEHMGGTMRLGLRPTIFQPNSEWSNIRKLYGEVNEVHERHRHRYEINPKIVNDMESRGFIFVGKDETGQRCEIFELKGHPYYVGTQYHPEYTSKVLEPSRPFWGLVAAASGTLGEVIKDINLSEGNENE

Ssa1 found by immunoblot in co-immunoprecipitates of client proteins from yeast (from UniProt P10591 1-642)
binding [1]: binds
binding [2]: binds
